No constants are given. Whether binding was seen depends on the method and setting. Binding seen in cells or lysates may run through a third protein. Some entries that bind do so weakly or less than the wild type. For some assays here: Sequences can lack the tags named with a protein.
How the values were obtained:
[1] = target: T1, Citrine-LYM2 (LysM-CONTAINING GPI-ANCHORED PROTEIN 2) (Arabidopsis) (UniProt O23006); test: co-IP
T1 sequence: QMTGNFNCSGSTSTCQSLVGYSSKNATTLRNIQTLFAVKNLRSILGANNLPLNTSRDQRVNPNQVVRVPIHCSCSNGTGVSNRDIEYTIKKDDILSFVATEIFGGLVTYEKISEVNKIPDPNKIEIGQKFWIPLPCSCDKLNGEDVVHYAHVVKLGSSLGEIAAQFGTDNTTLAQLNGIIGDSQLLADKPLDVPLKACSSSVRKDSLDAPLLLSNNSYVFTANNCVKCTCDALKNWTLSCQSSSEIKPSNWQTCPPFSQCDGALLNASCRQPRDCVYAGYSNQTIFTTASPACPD

Amino acid sequences for entries named in this document (tags omitted). Residues count along the entry.
UniProt O22476, residues 24-1196: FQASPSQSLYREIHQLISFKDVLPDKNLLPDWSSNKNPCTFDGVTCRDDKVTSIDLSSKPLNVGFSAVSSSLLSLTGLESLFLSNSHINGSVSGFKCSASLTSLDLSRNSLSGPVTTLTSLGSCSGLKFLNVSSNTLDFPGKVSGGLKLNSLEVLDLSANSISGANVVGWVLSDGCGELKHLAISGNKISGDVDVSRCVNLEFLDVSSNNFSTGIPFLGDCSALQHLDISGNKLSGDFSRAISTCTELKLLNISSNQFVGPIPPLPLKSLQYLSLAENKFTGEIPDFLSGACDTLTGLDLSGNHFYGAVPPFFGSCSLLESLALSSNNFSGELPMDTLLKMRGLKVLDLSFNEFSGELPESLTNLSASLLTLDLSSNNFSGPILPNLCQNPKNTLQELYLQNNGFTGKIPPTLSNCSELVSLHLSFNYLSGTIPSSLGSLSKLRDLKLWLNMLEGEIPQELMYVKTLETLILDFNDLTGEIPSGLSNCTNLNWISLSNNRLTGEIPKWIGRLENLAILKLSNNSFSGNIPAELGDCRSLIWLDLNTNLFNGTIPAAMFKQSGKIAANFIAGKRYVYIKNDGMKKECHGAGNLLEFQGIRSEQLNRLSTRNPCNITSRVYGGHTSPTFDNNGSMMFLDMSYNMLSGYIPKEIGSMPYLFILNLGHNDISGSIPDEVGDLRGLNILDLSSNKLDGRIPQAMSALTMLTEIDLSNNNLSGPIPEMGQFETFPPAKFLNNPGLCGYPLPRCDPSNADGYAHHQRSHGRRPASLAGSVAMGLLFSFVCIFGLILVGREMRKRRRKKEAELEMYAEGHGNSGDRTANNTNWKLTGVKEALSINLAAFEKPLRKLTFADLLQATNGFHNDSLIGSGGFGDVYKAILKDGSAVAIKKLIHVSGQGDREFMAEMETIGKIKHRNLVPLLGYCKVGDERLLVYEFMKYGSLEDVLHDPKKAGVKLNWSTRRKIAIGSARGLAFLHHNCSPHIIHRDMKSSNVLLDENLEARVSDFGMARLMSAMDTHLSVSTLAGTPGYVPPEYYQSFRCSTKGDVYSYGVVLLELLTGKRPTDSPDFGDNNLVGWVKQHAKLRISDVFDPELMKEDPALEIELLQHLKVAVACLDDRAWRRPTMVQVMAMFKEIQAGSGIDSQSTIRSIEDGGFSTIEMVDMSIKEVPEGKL

[2] = target: T2, LYK4-GFP (Arabidopsis (Col-0 cDNA)) (UniProt O64825); test: co-IP
T2 sequence: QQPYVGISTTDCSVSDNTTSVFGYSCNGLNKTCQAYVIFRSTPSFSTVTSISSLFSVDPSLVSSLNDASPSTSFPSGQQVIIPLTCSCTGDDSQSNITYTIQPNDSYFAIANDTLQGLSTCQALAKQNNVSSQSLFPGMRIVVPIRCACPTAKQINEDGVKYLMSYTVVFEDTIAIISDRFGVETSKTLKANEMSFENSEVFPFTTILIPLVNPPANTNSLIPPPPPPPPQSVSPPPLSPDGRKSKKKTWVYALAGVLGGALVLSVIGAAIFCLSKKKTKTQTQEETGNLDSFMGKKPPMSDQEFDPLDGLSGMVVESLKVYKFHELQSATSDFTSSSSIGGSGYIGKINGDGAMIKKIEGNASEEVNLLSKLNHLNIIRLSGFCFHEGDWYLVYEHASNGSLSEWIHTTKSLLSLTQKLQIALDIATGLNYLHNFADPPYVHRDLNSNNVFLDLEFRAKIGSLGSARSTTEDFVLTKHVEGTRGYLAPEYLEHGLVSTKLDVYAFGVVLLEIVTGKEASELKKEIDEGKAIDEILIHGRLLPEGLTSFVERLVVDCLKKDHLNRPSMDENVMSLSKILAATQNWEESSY

[3] = target: T3, CPK6-GFP (Arabidopsis (Col-0 cDNA)) (UniProt Q38872); test: co-IP
T3 sequence: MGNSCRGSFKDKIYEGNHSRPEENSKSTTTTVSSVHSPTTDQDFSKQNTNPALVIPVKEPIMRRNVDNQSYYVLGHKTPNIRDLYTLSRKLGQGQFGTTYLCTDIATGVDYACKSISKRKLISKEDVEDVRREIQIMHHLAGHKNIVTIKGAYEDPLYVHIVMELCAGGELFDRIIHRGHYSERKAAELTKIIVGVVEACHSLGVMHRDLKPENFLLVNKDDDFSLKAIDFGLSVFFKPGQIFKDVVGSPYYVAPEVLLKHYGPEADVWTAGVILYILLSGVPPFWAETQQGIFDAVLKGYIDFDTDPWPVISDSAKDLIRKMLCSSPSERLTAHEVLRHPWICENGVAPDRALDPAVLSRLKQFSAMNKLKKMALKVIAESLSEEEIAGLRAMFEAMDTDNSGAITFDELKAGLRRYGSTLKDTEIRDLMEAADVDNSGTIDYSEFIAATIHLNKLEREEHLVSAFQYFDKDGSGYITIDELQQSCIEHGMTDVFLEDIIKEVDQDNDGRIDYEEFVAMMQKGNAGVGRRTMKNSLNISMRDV

[4] = target: T4, Citrine-LYM2 expressed in Arabidopsis protoplasts (Arabidopsis) (UniProt O23006); test: co-IP
T4 sequence: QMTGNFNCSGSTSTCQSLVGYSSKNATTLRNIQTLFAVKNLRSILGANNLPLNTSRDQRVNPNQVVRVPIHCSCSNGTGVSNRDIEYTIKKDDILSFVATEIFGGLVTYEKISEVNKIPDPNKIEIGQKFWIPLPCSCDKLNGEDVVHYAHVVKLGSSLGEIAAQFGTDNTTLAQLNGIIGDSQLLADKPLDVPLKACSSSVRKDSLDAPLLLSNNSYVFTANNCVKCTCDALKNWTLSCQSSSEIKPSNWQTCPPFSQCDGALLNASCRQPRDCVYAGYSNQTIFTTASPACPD

[5] = target: T2, LYK4-GFP (Arabidopsis (Col-0 cDNA)); test: FRET or BRET
[6] = target: T1, Citrine-LYM2 (LysM-CONTAINING GPI-ANCHORED PROTEIN 2) (Arabidopsis); test: FRET or BRET

BRI1-RFP (from UniProt O22476 24-1196) (receptor)
binding [1]: no binding | binding [2]: no binding

B1: LYK4-HA (receptor, UniProt O64825 23-612)
chain: QQPYVGISTTDCSVSDNTTSVFGYSCNGLNKTCQAYVIFRSTPSFSTVTSISSLFSVDPSLVSSLNDASPSTSFPSGQQVIIPLTCSCTGDDSQSNITYTIQPNDSYFAIANDTLQGLSTCQALAKQNNVSSQSLFPGMRIVVPIRCACPTAKQINEDGVKYLMSYTVVFEDTIAIISDRFGVETSKTLKANEMSFENSEVFPFTTILIPLVNPPANTNSLIPPPPPPPPQSVSPPPLSPDGRKSKKKTWVYALAGVLGGALVLSVIGAAIFCLSKKKTKTQTQEETGNLDSFMGKKPPMSDQEFDPLDGLSGMVVESLKVYKFHELQSATSDFTSSSSIGGSGYIGKINGDGAMIKKIEGNASEEVNLLSKLNHLNIIRLSGFCFHEGDWYLVYEHASNGSLSEWIHTTKSLLSLTQKLQIALDIATGLNYLHNFADPPYVHRDLNSNNVFLDLEFRAKIGSLGSARSTTEDFVLTKHVEGTRGYLAPEYLEHGLVSTKLDVYAFGVVLLEIVTGKEASELKKEIDEGKAIDEILIHGRLLPEGLTSFVERLVVDCLKKDHLNRPSMDENVMSLSKILAATQNWEESSY
binding [3]: binds | binding [1]: binds

B2: LYK4-RFP expressed in Arabidopsis protoplasts (receptor, UniProt O64825 23-612)
chain: QQPYVGISTTDCSVSDNTTSVFGYSCNGLNKTCQAYVIFRSTPSFSTVTSISSLFSVDPSLVSSLNDASPSTSFPSGQQVIIPLTCSCTGDDSQSNITYTIQPNDSYFAIANDTLQGLSTCQALAKQNNVSSQSLFPGMRIVVPIRCACPTAKQINEDGVKYLMSYTVVFEDTIAIISDRFGVETSKTLKANEMSFENSEVFPFTTILIPLVNPPANTNSLIPPPPPPPPQSVSPPPLSPDGRKSKKKTWVYALAGVLGGALVLSVIGAAIFCLSKKKTKTQTQEETGNLDSFMGKKPPMSDQEFDPLDGLSGMVVESLKVYKFHELQSATSDFTSSSSIGGSGYIGKINGDGAMIKKIEGNASEEVNLLSKLNHLNIIRLSGFCFHEGDWYLVYEHASNGSLSEWIHTTKSLLSLTQKLQIALDIATGLNYLHNFADPPYVHRDLNSNNVFLDLEFRAKIGSLGSARSTTEDFVLTKHVEGTRGYLAPEYLEHGLVSTKLDVYAFGVVLLEIVTGKEASELKKEIDEGKAIDEILIHGRLLPEGLTSFVERLVVDCLKKDHLNRPSMDENVMSLSKILAATQNWEESSY
binding [4]: binds

B3: LYK5-RFP (receptor, UniProt O22808 27-664)
chain: QQPYVNNHQLACEVRVYDNITNGFTCNGPPSCRSYLTFWSQPPYNTADSIAKLLNVSAAEIQSINNLPTATTRIPTRELVVIPANCSCSSSSGGFYQHNATYNLSGNRGDETYFSVANDTYQALSTCQAMMSQNRYGERQLTPGLNLLVPLRCACPTAKQTTAGFKYLLTYLVAMGDSISGIAEMFNSTSAAITEGNELTSDNIFFFTPVLVPLTTEPTKIVISPSPPPPPVVATPPQTPVDPPGSSSSHKWIYIGIGIGAGLLLLLSILALCFYKRRSKKKSLPSSLPEENKLFDSSTKQSIPTTTTTQWSIDLSNSSEAFGLKSAIESLTLYRFNDLQSATSNFSDENRIKGSVYRATINGDDAAVKVIKGDVSSSEINLLKKLNHSNIIRLSGFCIREGTSYLVFEYSENGSISDWLHSSGKKSLTWKQRVEIARDVAEALDYLHNYITPPHIHKNLESTNILLDSNFRAKIANFGVARILDEGDLDLQLTRHVEGTQGYLAPEYVENGVITSKLDVFAFGVAVLELLSGREAVTIHKKKEGEEEVEMLCKVINSVLGGENVREKLKEFMDPSLGNEYPLELAYTMAQLAKSCVATDLNSRPSVTQVLTTLSMIVSSSIDWEPSDDLLRSGSLGN
binding [5]: binds | binding [2]: binds

B4: Citrine-LYM2 (LysM-CONTAINING GPI-ANCHORED PROTEIN 2) (receptor, UniProt O23006 24-318)
chain: QMTGNFNCSGSTSTCQSLVGYSSKNATTLRNIQTLFAVKNLRSILGANNLPLNTSRDQRVNPNQVVRVPIHCSCSNGTGVSNRDIEYTIKKDDILSFVATEIFGGLVTYEKISEVNKIPDPNKIEIGQKFWIPLPCSCDKLNGEDVVHYAHVVKLGSSLGEIAAQFGTDNTTLAQLNGIIGDSQLLADKPLDVPLKACSSSVRKDSLDAPLLLSNNSYVFTANNCVKCTCDALKNWTLSCQSSSEIKPSNWQTCPPFSQCDGALLNASCRQPRDCVYAGYSNQTIFTTASPACPD
binding [6]: binds
